PubChem BioAssay AID493246, Drosophila RNAi Screening Center, 2011

- Purpose: 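Genes fly cells need to grow and stay alive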 (primary screen)
- Cell system: Drosophila Kc and S2R+ cells
- Reagent: long dsRNA against Drosophila genes
- Measured: 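Raw, unnormalised count of remaining cells in each well; per-plate z-scores of cell number underlie the calls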
- Direction: Kc cell number and S2R+ cell number: higher = more cells remaining
- Hit rule: 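Active when the per-plate z-score of cell number is 3 or more in the direction of fewer cells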
The screen tested about 21,000 reagents; below is a random part of those with a known target gene and a result. Of all reagents, 429 (2%) were called active. 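Values are raw and not normalised between plates; calls rest on per-plate z-scores that were not deposited.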 The record does not give: the amount of reagent, the time to read-out.

CG30376 [DRSC05086] → Kc cell number, rep 1 = 1.45e6; Kc cell number, rep 2 = 1.51e6; S2R+ cell number, rep 1 = 9.78e5; S2R+ cell number, rep 2 = 1.04e6; activity call = inactive
RpS28b [DRSC18258] → Kc cell number, rep 1 = 3.59e5; S2R+ cell number, rep 1 = 7.22e5; activity call = inactive
CG14275 [DRSC02379] → Kc cell number, rep 1 = 1.62e6; Kc cell number, rep 2 = 1.63e6; S2R+ cell number, rep 1 = 1.18e6; S2R+ cell number, rep 2 = 1.32e6; activity call = inactive
CG31797 [DRSC02476] → Kc cell number, rep 1 = 1.52e6; Kc cell number, rep 2 = 1.59e6; S2R+ cell number, rep 1 = 1.34e6; S2R+ cell number, rep 2 = 3.51e5; activity call = inactive
CG31797 [DRSC02477] → Kc cell number, rep 1 = 1.49e6; Kc cell number, rep 2 = 1.64e6; S2R+ cell number, rep 1 = 1.38e6; S2R+ cell number, rep 2 = 3.22e5; activity call = inactive
St4 [DRSC07008] → Kc cell number, rep 1 = 1.60e6; Kc cell number, rep 2 = 1.68e6; S2R+ cell number, rep 1 = 1.28e6; S2R+ cell number, rep 2 = 1.46e6; activity call = inactive
CG11069 [DRSC14289] → Kc cell number, rep 1 = 1.50e6; Kc cell number, rep 2 = 1.61e6; S2R+ cell number, rep 1 = 1.20e6; S2R+ cell number, rep 2 = 1.27e6; activity call = inactive
Rs1 [DRSC05945] → Kc cell number, rep 1 = 1.35e6; Kc cell number, rep 2 = 1.45e6; S2R+ cell number, rep 1 = 9.53e5; S2R+ cell number, rep 2 = 9.65e5; activity call = inactive
PlexA [DRSC17220] → Kc cell number, rep 1 = 4.65e5; S2R+ cell number, rep 1 = 8.54e5; activity call = inactive
alpha-Est5 [DRSC12617] → Kc cell number, rep 1 = 1.63e6; Kc cell number, rep 2 = 1.63e6; S2R+ cell number, rep 1 = 1.21e6; S2R+ cell number, rep 2 = 1.30e6; activity call = inactive
CG14456 [DRSC11713] → Kc cell number, rep 1 = 1.59e6; Kc cell number, rep 2 = 1.63e6; S2R+ cell number, rep 1 = 1.19e6; S2R+ cell number, rep 2 = 1.31e6; activity call = inactive
CG14950 (retired record) [DRSC08409] → Kc cell number, rep 1 = 1.38e6; Kc cell number, rep 2 = 1.39e6; S2R+ cell number, rep 1 = 1.05e6; S2R+ cell number, rep 2 = 1.19e6; activity call = inactive
Pop1 [DRSC17739] → Kc cell number, rep 1 = 5.86e5; S2R+ cell number, rep 1 = 9.01e5; activity call = inactive
CG5254 [DRSC18611] → Kc cell number, rep 1 = 1.42e6; Kc cell number, rep 2 = 1.41e6; S2R+ cell number, rep 1 = 9.75e5; S2R+ cell number, rep 2 = 1.12e6; activity call = inactive
CG13326 [DRSC06363] → Kc cell number, rep 1 = 1.30e6; Kc cell number, rep 2 = 1.41e6; S2R+ cell number, rep 1 = 1.03e6; S2R+ cell number, rep 2 = 1.06e6; activity call = inactive
ppk5 [DRSC11492] → Kc cell number, rep 1 = 1.36e6; Kc cell number, rep 2 = 1.51e6; S2R+ cell number, rep 1 = 1.15e6; S2R+ cell number, rep 2 = 1.32e6; activity call = inactive
Agpat3 [DRSC10445] → Kc cell number, rep 1 = 1.60e6; Kc cell number, rep 2 = 1.56e6; S2R+ cell number, rep 1 = 1.34e6; S2R+ cell number, rep 2 = 1.42e6; activity call = inactive
f [DRSC19516] → Kc cell number, rep 1 = 1.44e6; Kc cell number, rep 2 = 1.41e6; S2R+ cell number, rep 1 = 1.15e6; S2R+ cell number, rep 2 = 1.31e6; activity call = inactive
f [DRSC20331] → Kc cell number, rep 1 = 1.59e6; Kc cell number, rep 2 = 1.62e6; S2R+ cell number, rep 1 = 1.18e6; S2R+ cell number, rep 2 = 1.26e6; activity call = inactive
Cdc37 [DRSC08648] → Kc cell number, rep 1 = 1.50e6; Kc cell number, rep 2 = 6.65e5; S2R+ cell number, rep 1 = 1.09e6; S2R+ cell number, rep 2 = 1.15e6; activity call = inactive
Ppr-Y [DRSC20892] → Kc cell number, rep 1 = 1.20e6; Kc cell number, rep 2 = 1.53e6; S2R+ cell number, rep 1 = 1.18e6; S2R+ cell number, rep 2 = 1.18e6; activity call = inactive

Looked up above.
For “Kc cell number, rep 1”, CG11069 [DRSC14289] has 1.50e6
For “Kc cell number, rep 2”, f [DRSC19516] is entered as 1.41e6
